{"source": "PubChem BioAssay AID1259415", "about": "(National Center for Advancing Translational Sciences (NCATS), 2018)", "note": "About 18,000 (4.4%) of roughly 410,000 compounds were called active. Inconclusive results, whose numbers are uncertain, are shown with a selection of clear calls. No stated cut-off is given here; in the data, active means activity change below about -60%; inconclusive means no clear call, values can overlap the other calls; inactive means above about -39%. On the % scale 0 is the no-effect control and ±100 the full control effect."}
{"assay": "qHTS Assay for inhibitors of the human cytomegalovirus (HCMV)", "settings": "HFF cells, HCMV-luciferase reporter, 72 h; at 57.5 µM; stronger effect = lower value", "procedure,_shortened": "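Steps: HFFs plated, 16 h 37C; compounds added; HCMV-luciferase added to MOI 1 PFU/cell; 72 h 37C; OneGlo reagent, 5 min room temperature; luminescence read, normalized to controls.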"}
{"smiles": "COc1ccc(-c2nnc3n2N(C(C)=O)C(c2ccc(Cl)c(Cl)c2)=C(C(C)=O)S3)cc1", "activity change, negative = inhibition": "inconclusive: -49.7%"}
{"smiles": "CCC1(c2ccc(F)cc2)NC(=O)N(CC(=O)N2CCN(S(=O)(=O)c3ccc(C)cc3C)CC2)C1=O", "note": "(centres undefined)", "activity change, negative = inhibition": "inconclusive: -46.7%"}
{"smiles": "COc1cccc(-c2ccc3ncnc(NCc4cccs4)c3c2)c1", "activity change, negative = inhibition": "inconclusive: -45.3%"}
{"smiles": "COc1ccc(CNc2cccc(F)c2)cc1Br", "activity change, negative = inhibition": "inactive: -13.7%"}
{"smiles": "Nc1c2c(nc3ccccc13)CCC2", "activity change, negative = inhibition": "inactive: 43.1%"}
{"smiles": "Cc1cc(C)c(NC(=O)CC(=O)c2ccccc2)c(Cl)c1", "activity change, negative = inhibition": "inconclusive: -50.5%"}
{"smiles": "CCOc1cc(C=O)ccc1OCc1cc(=O)n2cc(C)ccc2n1", "activity change, negative = inhibition": "inconclusive: -56.6%"}
{"smiles": "O=C(Cn1c(=O)n(Cc2ccc3c(c2)OCO3)c(=O)c2oc3ccccc3c21)Nc1ccccc1F", "activity change, negative = inhibition": "inactive: -19%"}
{"smiles": "Cc1ccc2nc(-c3ccccn3)c(NC3CCCC3)n2c1", "activity change, negative = inhibition": "active: -65.7%"}
{"smiles": "CCn1c(COc2cccc3cccnc23)nnc1SCC(=O)O", "activity change, negative = inhibition": "inactive: 4.87%"}
{"smiles": "Cc1ccc(NC(=O)CN2CCN(S(=O)(=O)c3cccs3)CC2)cc1S(=O)(=O)N(C)C", "activity change, negative = inhibition": "inconclusive: -40%"}
{"smiles": "Cc1noc(C)c1CSCC(=O)NCCN1C(=O)S/C(=C\\c2ccccc2F)C1=O", "activity change, negative = inhibition": "inconclusive: -44.3%"}
{"smiles": "COc1ccc(NC(=O)c2cccc(NC(=O)c3ccccc3)c2)c(OC)c1", "activity change, negative = inhibition": "inactive: -13.3%"}
{"smiles": "Cc1cc(OCC(=O)Nc2cccc(S(=O)(=O)N3CCCC3)c2)ccc1Cl", "activity change, negative = inhibition": "inactive: -13%"}
{"smiles": "COc1ccc(C(=O)Nc2ccc3c(c2)CCCN3C(=O)c2cccs2)c(OC)c1", "activity change, negative = inhibition": "inconclusive: -53.2%"}
{"smiles": "COc1cc(C(C)=O)ccc1OC(=O)CN1C(=O)c2ccccc2C1=O", "activity change, negative = inhibition": "inconclusive: -45.9%"}
{"smiles": "Cn1nc(C(F)(F)F)c(/C=N/OC(=O)c2ccccc2)c1SCc1ccccc1Cl", "activity change, negative = inhibition": "inconclusive: -46.1%"}
{"smiles": "O=C(CCCNC(=O)/C(=C\\c1ccccc1F)NC(=O)c1ccccc1)OCc1ccccc1", "activity change, negative = inhibition": "inconclusive: -41.3%"}
{"smiles": "CC(=O)c1cccc(NC(=O)CSc2nc(N3CCCCC3)nc(N3CCCCC3)n2)c1", "activity change, negative = inhibition": "inconclusive: -56.8%"}
{"smiles": "COc1ccc(Cl)cc1NC(=O)CN(C)C(=O)CCSc1ccc(C)cc1", "activity change, negative = inhibition": "inconclusive: 0%"}
{"smiles": "Cc1ccc(NC(=S)NCCc2ccc(F)cc2)c(C)c1", "activity change, negative = inhibition": "inconclusive: -43.2%"}
{"smiles": "CCn1c2ccc(OC)cc2c2nc3ccccc3nc21", "activity change, negative = inhibition": "inactive: 54.8%"}
{"smiles": "Cc1occc1C(=O)N1CCN(c2ccc(Cl)cc2)CC1", "activity change, negative = inhibition": "inconclusive: -46.6%"}
{"smiles": "Cc1ccc(NC(=O)CSc2nc3sc(C)cc3c(=O)n2C)cc1", "activity change, negative = inhibition": "inconclusive: -55%"}
{"smiles": "COc1ccccc1Nc1c([N+](=O)[O-])cc(C)cc1[N+](=O)[O-]", "activity change, negative = inhibition": "inconclusive: -47.3%"}
{"smiles": "COC(=O)Cc1cc(=O)[nH]c(/N=C(\\N)Nc2ccc(C(C)C)cc2)n1", "activity change, negative = inhibition": "inconclusive: -51.2%"}
{"smiles": "Cc1ccc(/C=C2\\SC(=S)N(c3cccnc3)C2=O)o1", "activity change, negative = inhibition": "inconclusive: -57.7%"}
{"smiles": "COc1cccc(C(=O)OCC(=O)NCCNC(=O)COC(=O)c2cccc(OC)c2OC)c1OC", "activity change, negative = inhibition": "inconclusive: -56.9%"}
{"smiles": "O=C(CSc1nc(Nc2ccc(F)cc2)c2ccccc2n1)c1ccc(F)cc1", "activity change, negative = inhibition": "inactive: 29.9%"}
{"smiles": "Cc1ccc(C2=N/C(=C\\c3ccc(OS(=O)(=O)c4ccc(C)cc4)cc3)C(=O)O2)cc1", "activity change, negative = inhibition": "inconclusive: -40.3%"}
{"smiles": "COc1ccc(C2Nc3ccccc3C(=O)N2NS(C)(=O)=O)cc1", "note": "(centres undefined)", "activity change, negative = inhibition": "inconclusive: -40%"}
{"smiles": "O=C(NCCc1ccccc1Cl)c1ccc2c(=O)n(-c3ccccc3)c(=O)[nH]c2c1", "activity change, negative = inhibition": "inconclusive: -50.7%"}
{"smiles": "CCn1c(=O)cc(OCC(=O)N2CCN(c3ccc(OC)cc3)CC2)c2ccccc21", "activity change, negative = inhibition": "active: -95.1%"}
{"smiles": "Cc1cccnc1-n1c(CN2C(=O)c3ccccc3C2=O)nc2ccccc2c1=O", "activity change, negative = inhibition": "inconclusive: -46.7%"}
{"smiles": "O=C(CSC1=NNC(c2ccccn2)S1)Nc1cccc(Cl)c1", "note": "(centres undefined)", "activity change, negative = inhibition": "active: -77.9%"}
{"smiles": "CCCCCCCCN1C(=O)[C@H](CC(=O)N2CCN(C(=O)c3ccco3)CC2)C[C@@]2(C(=O)OCC)CCCC=C12", "activity change, negative = inhibition": "inactive: -10.2%"}
{"smiles": "Cc1cc(C)n(CC(C)NCc2cn[nH]c2-c2ccc(C)c(C)c2)n1", "note": "(centres undefined)", "activity change, negative = inhibition": "inconclusive: -41.9%"}
{"smiles": "O=C1Nc2cc(C(=O)N3CCOCC3)ccc2S/C1=C/c1ccccc1F", "activity change, negative = inhibition": "inconclusive: -47.4%"}
{"smiles": "CCOc1ccc(S(=O)(=O)NCc2cccnc2)cc1NC(=O)c1ccccc1", "activity change, negative = inhibition": "inconclusive: 0%"}
{"smiles": "CCOC(=O)CC/C(C)=N\\N=C1\\SC(CC(=O)O)C(=O)N1c1ccccc1", "note": "(centres undefined)", "activity change, negative = inhibition": "inconclusive: -41%"}
{"smiles": "Cc1cc(Br)ccc1NC(=O)CN(C)C(=O)CCSc1ccc(F)cc1", "activity change, negative = inhibition": "inconclusive: -43.9%"}
{"smiles": "Cc1nn(-c2ccc(Cl)cc2)c(=O)c2c(C)noc12", "activity change, negative = inhibition": "inactive: -17.3%"}
{"smiles": "Cc1cc2c(NCCc3ccccc3)ncnc2s1", "activity change, negative = inhibition": "active: -88.3%"}
{"smiles": "COc1ccc(C(O)(C(C)C)C(CN2CCOCC2)c2ccc(Cl)cc2)cc1", "note": "(centres undefined)", "activity change, negative = inhibition": "inconclusive: -55.6%"}
{"smiles": "CCc1ccc(Nc2n[n+](-c3ccccc3)c(-c3ccc(SC)cc3)s2)cc1", "activity change, negative = inhibition": "active: -65%"}
{"smiles": "CC1Cc2ccccc2N1S(=O)(=O)c1cccc(C(=O)N2CC(=O)Nc3ccccc32)c1", "note": "(centres undefined)", "activity change, negative = inhibition": "inconclusive: -51.8%"}
{"smiles": "O=C(Nc1ccccc1)N1N=C(c2ccc(F)cc2)CC1c1ccc(F)cc1", "note": "(centres undefined)", "activity change, negative = inhibition": "inconclusive: -49.4%"}
{"smiles": "COc1cccc(CN2CCNC(=O)C2CC(=O)NCC2CCOCC2)c1", "note": "(centres undefined)", "activity change, negative = inhibition": "inconclusive: -51%"}
{"smiles": "O=C(Nc1ccc2nc(SCC(=O)N3CCCC3)sc2c1)c1cccc(Cl)c1", "activity change, negative = inhibition": "inconclusive: -47.6%"}
{"smiles": "CC(C)(C)NC(=O)C(c1ccccn1)N(C(=O)C1CSC(=O)C1)c1ccc(F)cc1", "note": "(centres undefined)", "activity change, negative = inhibition": "inactive: 37.6%"}
{"smiles": "Cc1ccc(S(=O)(=O)N2CCN(C(=S)NCC3CCCO3)CC2)cc1", "note": "(centres undefined)", "activity change, negative = inhibition": "inconclusive: -41.6%"}
{"smiles": "COc1ccc(NC(=O)COC(=O)CCc2nc3ccccc3c(=O)[nH]2)c(OC)c1", "activity change, negative = inhibition": "inconclusive: -46.3%"}
{"smiles": "Cc1ccc(Cn2c(SCC(=O)C(C)(C)C)nc3ccsc3c2=O)cc1", "activity change, negative = inhibition": "inconclusive: -41.4%"}
{"smiles": "O=C(Nc1ccccc1)C1=C[C@H](C2CCCCC2)C[C@H](OCc2ccc(CO)cc2)O1", "activity change, negative = inhibition": "inconclusive: -48.7%"}
